These are yes or no findings as the source states them, for the method shown. Some entries that bind do so weakly or less than the wild type.

From patent US20260139048A1 come the findings set out here.

Test [1] deals with His-tagged cynomolgus TIGIT (cynomolgus). The experiment in a line: SPR (BIAcore T200), antibody captured by goat anti-human pAb, His-tagged cynomolgus TIGIT injected in a dilution series.
Test [2] has the same target. As to the kind of experiment: SPR, purified antibody captured.

B1: huTIGIT-6-1 (antibody, human IgG1, kappa, V domains shown)
VH: QVQLVQSGAEVKKPGASVKVSCKASGYTITENTMHWVRQAPGQRLEWIGGINPNQGGTSYSQKFQGRATLTVDTSASTAYMELSSLRSEDTAVYYCTRSSYYRYDLDYWGQGTTVTVSS
VL: DIQMTQSPSSLSASVGDRVTITCQASQDIKTALAWYQQKPGKAPKLLIYSASYRYTGVPSRFSGSGSGTDFTFTISSLQPEDIATYYCHQHYTTPWTFGGGTKLEIKR
B1: the binding entry in test [1] and in test [2] was “binds” in each case.

B2: huTIGIT-6-3 (antibody, human IgG1, kappa, V domains shown)
VH: QVQLVQSGAEVKKPGASVKVSCKASGYTFTENAMHWVRQAPGQRLEWIGGINPNQGGTSYSQKFQGRATLTVDTSASTAYMELSSLRSEDTAVYYCTRSSYYRYDLDYWGQGTTVTVSS
VL: DIQMTQSPSSLSASVGDRVTITCQASQDIKTALAWYQQKPGKAPKLLIYSASYRYTGVPSRFSGSGSGTDFTFTISSLQPEDIATYYCHQHYTTPWTFGGGTKLEIKR
With B2, the binding entry in test [1] and in test [2] was “binds” each time.

B3: huTIGIT-6-4 (antibody, human IgG1, kappa, V domains shown)
VH: QVQLVQSGAEVKKPGASVKVSCKASGYTFTENAMHWVRQAPGQRLEWIGGINPNNAGTSYSQKFQGRATLTVDTSASTAYMELSSLRSEDTAVYYCTRSSYYRYDLDYWGQGTTVTVSS
VL: DIQMTQSPSSLSASVGDRVTITCQASQDIKTALAWYQQKPGKAPKLLIYSASYRYTGVPSRFSGSGSGTDFTFTISSLQPEDIATYYCHQHYTTPWTFGGGTKLEIKR
With B3, the binding entry in test [1] and in test [2] was “binds” each time.

B4: huTIGIT-6-2 (antibody, human IgG1, kappa, V domains shown)
VH: QVQLVQSGAEVKKPGASVKVSCKASGYTITENTMHWVRQAPGQRLEWIGGINPNNAGTSYSQKFQGRATLTVDTSASTAYMELSSLRSEDTAVYYCTRSSYYRYDLDYWGQGTTVTVSS
VL: DIQMTQSPSSLSASVGDRVTITCQASQDIKTALAWYQQKPGKAPKLLIYSASYRYTGVPSRFSGSGSGTDFTFTISSLQPEDIATYYCHQHYTTPWTFGGGTKLEIKR
For B4, the binding entry in test [1] and in test [2] was “binds” in each case.

B5: huTIGIT-3-1 (antibody, human IgG1, kappa, V domains shown)
VH: EVQLVESGGGLVQPGGSLRLSCAASGFTFSSYGMSWVRQAPGKGLELVATIKSSGGSTNLADSVKGRFTISRDNSKNTLYLQMNSLRAEDTAVYYCVRGYFDYWGQGTTVTVSS
VL: DIQMTQSPSSLSASVGDRVTITCRASQDIKTALAWYQQKPGKSPKLLIYWASTRQSGVPSRFSGSGSGTDFTLTISSLQPEDVATYYCQQYYSTPYTFGGGTKVEIKR
For B5, the binding entry in test [1] and in test [2] was “binds” each time.

B6: huTIGIT-19-1 (antibody, human IgG1, kappa, V domains shown)
VH: QVQLVQSGAEVKKPGASVKVSCKASGYTFTRYSMYWVRQAPGQGLEWIAFIDAYSGGSTYNQRFRGKATLTVDTSISTAYMELSRLRSDDTAVYYCARGGDYGWYLGVWGQGTLVTVSS
VL: DIQMTQSPSSLSASVGDRVTITCRPSENIYTYLSWYQQKPGKAPKLLIYNAKSLPSGVPSRFSGSGSGTDFTLTISSLQPEDFATYYCQHHYGNPLTFGQGTKVEIKR
As for B6, the binding result in test [1] is recorded as “binds”.

B7: huTIGIT-19-2 (antibody, human IgG1, kappa, V domains shown)
VH: QVQLVQSGAEVKKPGASVKVSCKASGYTFTRYSMYWVRQAPGQGLEWIAFIDAYSGGSTYNQRFRGKATLTVDTSISTAYMELSRLRSDDTAVYYCARGGDYGWYLGVWGQGTLVTVSS
VL: DIQMTQSPSSLSASVGDRVTITCRASQSIYSYLSWYQQKPGKAPKLLIYNAKSLPSGVPSRFSGSGSGTDFTLTISSLQPEDFATYYCQHHYGNPLTFGQGTKVEIKR
On to B7, for which, in test [1], the binding entry was “binds”.

B8: huTIGIT-19-3 (antibody, human IgG1, kappa, V domains shown)
VH: QVQLVQSGAEVKKPGASVKVSCKASGYTFTRYSMYWVRQAPGQGLEWIAFIDAYSGGSTYAQKFQGKATLTVDTSISTAYMELSRLRSDDTAVYYCARGGDYGWYLGVWGQGTLVTVSS
VL: DIQMTQSPSSLSASVGDRVTITCRPSENIYTYLSWYQQKPGKAPKLLIYNAKSLPSGVPSRFSGSGSGTDFTLTISSLQPEDFATYYCQHHYGNPLTFGQGTKVEIKR
For the molecule B8, in test [1], the binding result is reported as “binds”.

B9: huTIGIT-19-4 (antibody, human IgG1, kappa, V domains shown)
VH: QVQLVQSGAEVKKPGASVKVSCKASGYTFTRYSMYWVRQAPGQGLEWIAFIDAYSGGSTYAQKFQGKATLTVDTSISTAYMELSRLRSDDTAVYYCARGGDYGWYLGVWGQGTLVTVSS
VL: DIQMTQSPSSLSASVGDRVTITCRASQSIYSYLSWYQQKPGKAPKLLIYNAKSLPSGVPSRFSGSGSGTDFTLTISSLQPEDFATYYCQHHYGNPLTFGQGTKVEIKR
As for B9, the binding result in test [1] is “binds”.

B10: TIGIT-19 chimeric antibody (antibody, human IgG1, kappa, V domains shown)
VH: QVQLQQPGPELVKPGTSVMLSCKASGYAFSRYSMYWVKQSHGKSLEWIAFIDPYNGGSTYNQRFRGKATLTVDKSSSTAYMHLNTLTSDDSAVYYCARGGDYGWYLGVWGAGTTVTVSS
VL: DIQMTQSPASLSASVGETVTITCRPSENIYTYLSWYQQKRGKSPQLLVYNAKTLPENVPSRFSGSGSGTQFSLKIDSLQPEDFGNYYCQHHYGNPLTFGAGTKLELKR
Turning to B10, the binding entry in test [1] was “binds”.

B11: TIGIT-6 chimeric antibody (antibody, human IgG1, kappa, V domains shown)
VH: QVQLKQSGPELVKPGASVKISCKTSGYTITENTMHWVKQSHGKSLEWIGGINPNNGGTSYNQQFKGKATLTVDKSSSTAYMELRSLTSEDSAVYYCTRSSYYRYDLDYWGQGTTVTVSS
VL: DIQMTQSHKFMSTSVGDRVSITCKASQDVKTALAWYQQKPGQSPKLLIYSASYRYTGVPDRFTGSGSGTDFTFTISSVQAEDLAVYYCHQHYTTPWTFGGGTKLEIKR
Consider B11, for which the binding result in test [1] and in test [2] was “binds” throughout.
